Results published in patent publication US20220087275A1, “MAGNESIUM ION AS ANTIBACTERIAL AGENT” (THE STATE OF ISRAEL, MINISTRY OF AGRICULTURE & RURAL …, priority 2016, published 2022).
Read-outs that look alike come from different tables or passages of the source.

Description: In order to examine milk clotting parameters, milk samples obtained from the dairy farm of the Agricultural Research Organization (ARO; Bet Dagan, Israel). […] Milk-clotting parameters such as rennet clotting time (RCT; min) and curd firmness (CF; V) after 90 min (CF-90) which are measured with an Optigraph instrument (Ysebaert, Frepillon, France) as described by Leitner et al. (2011). Results are presented in a graph. The point in which the curve is split into two curves, represents the rennet Clotting Time (RCT), which is the time between the addition of the clotting enzyme and the beginning of the coagulation process. The curd firmness is derived from the distance of the two curves in the graph 30 min after the addition of the clotting enzyme, or 90 minutes after the addition of the clotting enzyme.

With `[Cl-].[Cl-].[Mg+2]` [MgCl2, magnesium chloride] the “Curd firmness (volts), Average” value (3 mM Mg) was 11.88 volts, the “RCT (minutes), Average” value (3 mM Mg) was 12.12 min and the “Curd firmness (volts), Average” value (5 mM Mg) was 13.56 volts. The “RCT (minutes), Average” value (5 mM Mg) was 9.42 min.
